Experimental findings from the supplement of paper PMC12819154, “High-throughput peptide-centric local stability assay extends protein–ligand identification to membrane proteins, tissues and bacteria” (Nature Structural & Molecular Biology, 2025) are described below.

By UniProt entry, the sequences of proteins in these tests, tags left out. Where a name states a change or a piece, a line headed by the entry shows the natural chain unless it says otherwise.
UniProt Q99653: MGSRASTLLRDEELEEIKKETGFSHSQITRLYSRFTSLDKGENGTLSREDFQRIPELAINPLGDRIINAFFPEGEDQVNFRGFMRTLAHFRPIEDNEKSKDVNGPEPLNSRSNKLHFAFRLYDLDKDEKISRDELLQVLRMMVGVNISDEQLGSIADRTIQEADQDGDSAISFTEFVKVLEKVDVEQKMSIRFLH
UniProt Q9BRJ6: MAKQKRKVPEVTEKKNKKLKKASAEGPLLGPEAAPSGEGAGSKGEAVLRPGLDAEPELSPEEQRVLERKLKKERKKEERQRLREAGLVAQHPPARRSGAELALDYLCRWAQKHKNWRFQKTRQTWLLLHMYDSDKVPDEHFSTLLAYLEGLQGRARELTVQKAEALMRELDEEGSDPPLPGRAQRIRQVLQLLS
UniProt Q99613, whole entry: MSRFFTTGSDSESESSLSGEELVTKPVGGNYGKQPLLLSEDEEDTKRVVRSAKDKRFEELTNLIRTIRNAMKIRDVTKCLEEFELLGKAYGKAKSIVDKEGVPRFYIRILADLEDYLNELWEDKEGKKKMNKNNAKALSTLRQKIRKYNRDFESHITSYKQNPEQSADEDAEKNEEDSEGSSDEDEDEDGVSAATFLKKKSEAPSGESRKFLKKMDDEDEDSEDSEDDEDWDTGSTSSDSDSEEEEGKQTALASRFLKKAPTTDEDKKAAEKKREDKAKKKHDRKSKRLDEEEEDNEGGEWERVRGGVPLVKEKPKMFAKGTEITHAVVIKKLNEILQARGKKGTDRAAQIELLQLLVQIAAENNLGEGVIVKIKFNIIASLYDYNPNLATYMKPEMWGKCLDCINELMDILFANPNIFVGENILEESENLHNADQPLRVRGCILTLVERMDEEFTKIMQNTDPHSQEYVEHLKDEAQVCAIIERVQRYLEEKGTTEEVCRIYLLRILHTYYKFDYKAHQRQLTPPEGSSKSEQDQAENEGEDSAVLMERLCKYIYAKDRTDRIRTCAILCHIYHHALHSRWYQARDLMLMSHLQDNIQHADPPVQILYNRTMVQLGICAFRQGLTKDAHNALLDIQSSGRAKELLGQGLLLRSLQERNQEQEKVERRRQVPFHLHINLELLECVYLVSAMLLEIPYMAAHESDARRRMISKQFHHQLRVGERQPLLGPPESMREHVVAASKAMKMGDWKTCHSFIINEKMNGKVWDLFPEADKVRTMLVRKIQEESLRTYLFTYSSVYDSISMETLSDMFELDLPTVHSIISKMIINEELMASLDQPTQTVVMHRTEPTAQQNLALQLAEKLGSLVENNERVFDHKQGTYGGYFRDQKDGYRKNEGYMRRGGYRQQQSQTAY
UniProt Q9BRU9: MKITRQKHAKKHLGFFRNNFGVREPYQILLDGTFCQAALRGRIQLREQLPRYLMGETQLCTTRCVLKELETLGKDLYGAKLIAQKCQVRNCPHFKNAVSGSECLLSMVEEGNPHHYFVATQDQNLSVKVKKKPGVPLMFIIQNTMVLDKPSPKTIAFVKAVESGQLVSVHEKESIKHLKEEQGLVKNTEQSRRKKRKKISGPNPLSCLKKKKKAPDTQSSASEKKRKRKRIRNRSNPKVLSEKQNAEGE
UniProt Q9BPX7: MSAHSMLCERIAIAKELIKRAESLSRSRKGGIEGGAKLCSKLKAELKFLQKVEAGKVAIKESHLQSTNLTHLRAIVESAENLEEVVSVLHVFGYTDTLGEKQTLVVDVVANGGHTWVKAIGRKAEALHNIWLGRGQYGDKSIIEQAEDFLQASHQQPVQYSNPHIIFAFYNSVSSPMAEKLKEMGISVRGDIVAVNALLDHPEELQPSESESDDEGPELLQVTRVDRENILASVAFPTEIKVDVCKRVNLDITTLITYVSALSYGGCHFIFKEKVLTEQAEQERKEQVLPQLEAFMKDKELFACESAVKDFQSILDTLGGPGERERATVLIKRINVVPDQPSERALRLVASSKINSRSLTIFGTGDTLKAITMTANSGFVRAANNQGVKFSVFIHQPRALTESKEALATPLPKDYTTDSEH
UniProt Q9BV40: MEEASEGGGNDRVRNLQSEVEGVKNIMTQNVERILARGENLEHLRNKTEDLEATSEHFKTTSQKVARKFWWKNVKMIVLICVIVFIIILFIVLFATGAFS
UniProt Q9BSJ6: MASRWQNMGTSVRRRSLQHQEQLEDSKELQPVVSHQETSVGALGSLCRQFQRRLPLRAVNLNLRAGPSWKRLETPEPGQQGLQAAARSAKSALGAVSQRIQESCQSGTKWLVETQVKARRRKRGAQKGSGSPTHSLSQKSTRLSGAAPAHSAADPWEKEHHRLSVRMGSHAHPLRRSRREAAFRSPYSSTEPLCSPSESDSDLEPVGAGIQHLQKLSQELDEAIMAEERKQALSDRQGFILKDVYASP
UniProt Q9BT43: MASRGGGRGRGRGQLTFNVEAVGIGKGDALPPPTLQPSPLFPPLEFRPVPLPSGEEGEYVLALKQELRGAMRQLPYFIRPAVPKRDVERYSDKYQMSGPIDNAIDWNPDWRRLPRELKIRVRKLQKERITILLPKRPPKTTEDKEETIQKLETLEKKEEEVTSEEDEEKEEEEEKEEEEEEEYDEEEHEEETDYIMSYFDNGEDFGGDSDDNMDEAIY
UniProt Q99848: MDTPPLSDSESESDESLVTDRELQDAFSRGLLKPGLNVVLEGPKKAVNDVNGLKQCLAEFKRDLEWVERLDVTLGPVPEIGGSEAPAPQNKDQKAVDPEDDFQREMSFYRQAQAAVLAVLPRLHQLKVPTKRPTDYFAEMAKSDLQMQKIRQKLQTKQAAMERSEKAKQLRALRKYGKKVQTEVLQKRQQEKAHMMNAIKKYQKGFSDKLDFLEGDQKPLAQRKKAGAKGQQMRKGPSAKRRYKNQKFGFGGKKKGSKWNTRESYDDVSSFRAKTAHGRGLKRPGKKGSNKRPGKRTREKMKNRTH
UniProt Q9BVC5: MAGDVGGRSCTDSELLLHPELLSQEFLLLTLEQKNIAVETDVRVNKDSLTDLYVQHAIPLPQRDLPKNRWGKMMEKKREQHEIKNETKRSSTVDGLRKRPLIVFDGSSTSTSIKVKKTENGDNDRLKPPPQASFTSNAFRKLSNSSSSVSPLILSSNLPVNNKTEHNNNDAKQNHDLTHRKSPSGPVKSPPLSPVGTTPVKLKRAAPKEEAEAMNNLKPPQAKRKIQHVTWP
UniProt Q9BQ67, whole entry: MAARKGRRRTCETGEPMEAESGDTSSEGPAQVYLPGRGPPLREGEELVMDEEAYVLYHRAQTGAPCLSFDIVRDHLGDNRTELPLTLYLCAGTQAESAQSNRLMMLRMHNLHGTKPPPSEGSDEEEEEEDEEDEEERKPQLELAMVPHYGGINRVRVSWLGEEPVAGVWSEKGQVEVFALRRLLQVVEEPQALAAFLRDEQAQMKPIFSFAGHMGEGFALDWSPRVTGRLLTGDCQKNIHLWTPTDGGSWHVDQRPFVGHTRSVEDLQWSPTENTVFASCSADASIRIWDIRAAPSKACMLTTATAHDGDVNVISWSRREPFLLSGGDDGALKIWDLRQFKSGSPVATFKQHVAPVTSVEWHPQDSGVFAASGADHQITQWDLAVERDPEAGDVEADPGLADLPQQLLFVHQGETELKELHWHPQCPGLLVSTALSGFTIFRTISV
UniProt Q9BW85: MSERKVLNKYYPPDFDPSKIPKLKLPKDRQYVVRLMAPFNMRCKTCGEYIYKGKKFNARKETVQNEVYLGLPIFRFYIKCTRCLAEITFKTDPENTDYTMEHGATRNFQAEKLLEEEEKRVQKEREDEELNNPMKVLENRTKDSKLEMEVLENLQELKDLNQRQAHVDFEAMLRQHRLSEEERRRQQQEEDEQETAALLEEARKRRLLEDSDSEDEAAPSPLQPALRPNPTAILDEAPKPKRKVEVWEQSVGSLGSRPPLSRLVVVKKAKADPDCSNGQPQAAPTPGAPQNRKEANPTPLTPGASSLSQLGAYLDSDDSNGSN
UniProt Q9BVI4: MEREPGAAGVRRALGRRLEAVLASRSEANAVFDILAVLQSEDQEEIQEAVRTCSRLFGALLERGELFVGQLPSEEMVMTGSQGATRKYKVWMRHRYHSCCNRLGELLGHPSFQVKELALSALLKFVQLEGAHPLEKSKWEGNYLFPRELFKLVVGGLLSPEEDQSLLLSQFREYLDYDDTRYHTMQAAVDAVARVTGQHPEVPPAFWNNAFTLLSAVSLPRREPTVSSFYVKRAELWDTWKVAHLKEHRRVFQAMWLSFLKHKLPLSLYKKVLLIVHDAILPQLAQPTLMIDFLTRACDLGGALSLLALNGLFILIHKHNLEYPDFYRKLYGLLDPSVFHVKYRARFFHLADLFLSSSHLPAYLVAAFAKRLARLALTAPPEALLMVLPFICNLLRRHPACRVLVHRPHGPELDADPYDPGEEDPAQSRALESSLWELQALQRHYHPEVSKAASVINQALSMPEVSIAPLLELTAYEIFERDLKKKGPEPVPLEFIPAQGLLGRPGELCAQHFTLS
UniProt Q99612: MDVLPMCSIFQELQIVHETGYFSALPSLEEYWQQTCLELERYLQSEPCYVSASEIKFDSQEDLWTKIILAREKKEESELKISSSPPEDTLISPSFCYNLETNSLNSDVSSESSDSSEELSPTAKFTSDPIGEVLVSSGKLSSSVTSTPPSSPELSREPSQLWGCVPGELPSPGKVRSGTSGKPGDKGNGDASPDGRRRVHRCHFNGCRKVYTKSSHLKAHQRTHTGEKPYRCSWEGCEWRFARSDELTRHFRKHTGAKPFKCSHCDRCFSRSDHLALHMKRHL
UniProt Q9BUR4: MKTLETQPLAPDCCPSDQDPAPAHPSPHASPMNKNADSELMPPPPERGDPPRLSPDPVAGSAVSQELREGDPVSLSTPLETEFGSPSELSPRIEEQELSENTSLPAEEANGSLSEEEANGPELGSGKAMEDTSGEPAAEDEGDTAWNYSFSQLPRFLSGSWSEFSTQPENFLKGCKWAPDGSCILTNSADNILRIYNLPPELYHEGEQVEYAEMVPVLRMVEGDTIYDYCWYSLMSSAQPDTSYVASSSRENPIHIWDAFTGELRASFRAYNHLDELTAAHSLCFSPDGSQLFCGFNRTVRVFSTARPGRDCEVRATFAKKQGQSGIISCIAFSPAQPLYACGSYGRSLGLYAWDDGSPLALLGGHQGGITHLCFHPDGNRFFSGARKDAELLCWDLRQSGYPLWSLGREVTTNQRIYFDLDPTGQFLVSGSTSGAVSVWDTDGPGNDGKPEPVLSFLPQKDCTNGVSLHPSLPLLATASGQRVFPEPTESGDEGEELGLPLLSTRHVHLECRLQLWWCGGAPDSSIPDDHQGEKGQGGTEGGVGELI
UniProt Q9BQI6: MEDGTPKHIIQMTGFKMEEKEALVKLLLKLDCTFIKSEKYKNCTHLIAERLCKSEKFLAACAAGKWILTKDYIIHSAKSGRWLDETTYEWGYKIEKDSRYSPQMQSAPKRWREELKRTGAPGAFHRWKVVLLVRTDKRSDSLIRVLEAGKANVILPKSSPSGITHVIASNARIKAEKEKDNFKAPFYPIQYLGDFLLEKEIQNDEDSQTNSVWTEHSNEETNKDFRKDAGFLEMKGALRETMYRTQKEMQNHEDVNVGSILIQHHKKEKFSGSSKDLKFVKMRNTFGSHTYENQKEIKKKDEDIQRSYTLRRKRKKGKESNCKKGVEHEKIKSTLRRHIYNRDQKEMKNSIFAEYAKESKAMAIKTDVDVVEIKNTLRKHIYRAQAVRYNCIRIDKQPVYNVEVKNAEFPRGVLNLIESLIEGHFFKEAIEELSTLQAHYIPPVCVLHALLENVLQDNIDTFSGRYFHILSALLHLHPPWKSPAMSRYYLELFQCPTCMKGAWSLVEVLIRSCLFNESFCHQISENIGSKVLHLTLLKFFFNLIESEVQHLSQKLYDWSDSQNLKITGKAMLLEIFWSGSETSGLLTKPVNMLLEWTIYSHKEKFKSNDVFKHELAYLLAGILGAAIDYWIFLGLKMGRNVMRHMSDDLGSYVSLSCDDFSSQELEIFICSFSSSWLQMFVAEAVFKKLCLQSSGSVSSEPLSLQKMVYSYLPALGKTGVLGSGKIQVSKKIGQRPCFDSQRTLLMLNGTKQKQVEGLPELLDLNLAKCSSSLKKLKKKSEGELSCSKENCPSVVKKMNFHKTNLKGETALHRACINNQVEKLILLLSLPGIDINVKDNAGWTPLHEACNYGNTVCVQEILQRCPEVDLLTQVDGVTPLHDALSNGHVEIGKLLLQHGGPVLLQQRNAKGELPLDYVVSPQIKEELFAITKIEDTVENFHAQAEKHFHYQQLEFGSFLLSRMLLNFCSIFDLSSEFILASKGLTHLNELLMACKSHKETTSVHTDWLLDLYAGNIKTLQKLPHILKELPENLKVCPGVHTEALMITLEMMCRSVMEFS
UniProt Q99714: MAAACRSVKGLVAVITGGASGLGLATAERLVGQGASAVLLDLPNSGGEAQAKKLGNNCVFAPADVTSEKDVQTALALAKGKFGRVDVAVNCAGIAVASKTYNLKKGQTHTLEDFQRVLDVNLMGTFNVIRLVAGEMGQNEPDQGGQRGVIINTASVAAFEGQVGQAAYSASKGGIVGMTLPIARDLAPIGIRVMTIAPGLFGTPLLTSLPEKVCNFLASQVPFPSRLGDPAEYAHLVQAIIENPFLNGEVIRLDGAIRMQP

This is one part of the list. Most entries show no effect beyond the scatter of the controls.

Compound in this test: CN[C@@H]1C[C@H]2O[C@@](C)([C@@H]1OC)n1c3ccccc3c3c4c(c5c6ccccc6n2c5c31)C(=O)NC4 [staurosporine]
The experiment in a line: log2 fold change of tryptic peptide abundance, ligand vs vehicle (limited proteolysis) (log2 ratio); higher = more trypsin-susceptible (destabilized). As to conditions: ligand concentration: 20 uM; sample: K562 cleared lysate; digestion: 4 min, 22 C (HT-PELSA RT4min, Orbitrap Astral).
On to “ZNF184 (peptide sequence: KTFSQSTYLIQHQR, peptide start residue: 705) (UniProt Q99676)”, for which the log2 fold change is -1.35.
Under “UniProt Q99653 (peptide sequence: TLAHFRPIEDNEK, peptide start residue: 86)” stands -0.32; under “SPATA5L1 (peptide sequence: DLALYENLFK, peptide start residue: 734) (UniProt Q9BVQ7)”, 0.278.
As to “UniProt Q99623 (peptide sequence: IVQAEGEAEAAK, peptide start residue: 225)”, the log2 fold change came out at 0.534.
For “UniProt Q99502 (peptide sequence: IGKESCFER, peptide start residue: 513)” the value was 0.0281; for “C7orf50 (peptide sequence: EAGLVAQHPPARR, peptide start residue: 84) (UniProt Q9BRJ6)”, 0.346; for “ABCA3 (peptide sequence: ILAPSPDSLLHTPLIIK, peptide start residue: 1368) (UniProt Q99758)”, -0.553.
For “EIF3C (peptide sequence: GCILTLVERMDEEFTK, peptide start residue: 442) (UniProt Q99613)” the value was 0.314; for “UTP23 (peptide sequence: HLKEEQGLVK, peptide start residue: 177) (UniProt Q9BRU9)”, 0.301; for “TSEN34 (peptide sequence: KTLLLCSPQPDGK, peptide start residue: 286) (UniProt Q9BSV6)”, 0.363.
As for “C7orf25 (peptide sequence: QTLVVDVVANGGHTWVK, peptide start residue: 102) (UniProt Q9BPX7)”, the log2 fold change stood at 0.195.
Consider “VAMP8 (peptide sequence: NKTEDLEATSEHFK, peptide start residue: 46) (UniProt Q9BV40)”, for which the log2 fold change is -0.0691.
On to “PIMREG (peptide sequence: LSGAAPAHSAADPWEKEHHR, peptide start residue: 143) (UniProt Q9BSJ6)”, for which the log2 fold change was 0.143.
Under “POLR3GL (peptide sequence: TTEDKEETIQK, peptide start residue: 140) (UniProt Q9BT43)” stands -0.121.
For “UniProt Q9BSH4 (peptide sequence: IFSKLCLNIR, peptide start residue: 80)” the value was -0.614; for “EBNA1BP2 (peptide sequence: SDLQMQK, peptide start residue: 143) (UniProt Q99848)”, -0.333.
Under “C2orf49 (peptide sequence: KRPLIVFDGSSTSTSIK, peptide start residue: 98) (UniProt Q9BVC5)” stands -0.129; under “GRWD1 (peptide sequence: LLQVVEEPQALAAFLR, peptide start residue: 183) (UniProt Q9BQ67)”, -0.381.
In the case of “SRSF8 (peptide sequence: VGDVYIPREPHTKAPR, peptide start residue: 40) (UniProt Q9BRL6)”, the log2 fold change came out at 0.493.
Under “UniProt Q9BW85 (peptide sequence: LMAPFNMR, peptide start residue: 35)” stands 0.191.
“NOC4L (peptide sequence: EYLDYDDTR, peptide start residue: 173) (UniProt Q9BVI4)”: the log2 fold change was 0.278.
For “UniProt Q99612 (peptide sequence: SDHLALHMKR, peptide start residue: 351)”, the log2 fold change amounted to 0.804.
For “UniProt Q9BU61 (peptide sequence: LSPADDELYQR, peptide start residue: 34)” the value was -0.03; for “UniProt Q9BUR4 (peptide sequence: GQGGTEGGVGELI, peptide start residue: 536)”, 0.0926.
Under “RIOK1 (peptide sequence: SSQDHVDEEVFKR, peptide start residue: 415) (UniProt Q9BRS2)” stands -0.172.
For “UniProt Q9BQI6 (peptide sequence: KHIYRAQAVR, peptide start residue: 379)” the value was 0.92.
In the case of “VPS25 (peptide sequence: LIYQWVSR, peptide start residue: 110) (UniProt Q9BRG1)”, the log2 fold change is -0.284.
For “HSD17B10 (peptide sequence: VLDVNLMGTFNVIR, peptide start residue: 117) (UniProt Q99714)” the value was -0.734.
